Results taken from patent publication US5114851A, “Light activated acyl-enzymes” (Duke University, priority 1989, dated 1992).

Assay: Photolysis of model compounds and cyclization of the cis photoisomer to the coumarin (conventional spectroscopy or flash photolysis)
Type: physicochemical
Text: Preliminary to our studies of the enzyme system, we studied the photochemistry of the model compounds Ethyl-(E)-2-methoxy-4-diethylamino-α-methylcinnamate and Ethyl-(E)-2-hydroxy-4-diethylamino-α-methylcinnamate (hereinafter "DEA acyl", as this compound models DEA acyl-thrombin with ethyl in place of thrombin). Photolysis of Ethyl-(E)-2-methoxy-4-diethylamino-α-methylcinnamate with 366 nm light results in a rapid decrease in absorbance as the cis photoisomer is formed (In all photolyses reported here, except for the laser flash studies, the source lamp was a mercury 500 W high pressure lamp. The 366 nm emission was isolated by a Bausch and Lomb grating monochromator). […] Photolysis for 5 minutes of DEA acyl in 98% ethanol/2% pH 7.4 Tris buffer gives a sharp decrease in the absorbance at 360 nm, followed by a slow increase in absorbance at 380 nm due to the dark formation of the 3-methyl-7-N,N-diethylamino-coumarin (hereafter "the coumarin"). The increase in the absorbance due to the coumarin is first order with kc =7.17·10^-4 s^-1. […]
No evidence for a cis acyl enzyme photoisomer is seen by conventional spectroscopy. […] For both DEA acyl and DEA acyl-thrombin, the flash results in an immediate decrease in absorbance at 380 nm, followed by a first order increase of absorbance as the coumarin forms from the cis intermediate.

SMILES: CCOC(=O)/C(C)=C/c1ccc(N(CC)CC)cc1O [DEA acyl, Ethyl-(E)-2-hydroxy-4-diethylamino-α-methylcinnamate]
- yield of coumarin on photolysis (under all of the conditions described): essentially quantitative

SMILES: CCOC(=O)/C(C)=C/c1ccc(N(CC)CC)cc1OC [Ethyl-(E)-2-methoxy-4-diethylamino-α-methylcinnamate]
- cis photoisomer in the mixture at the photostationary state (366 nm light): 60%
